Test results from doi:10.1101/750596.

Tests used:
[1] = target: CNTD1 short form, yeast two-hybrid bait (mouse); assay: two-hybrid
[2] = target: CNTD1^FH (C-terminally FLAG-HA tagged CNTD1 short form from the Cntd1^FH knock-in allele) (mouse (endogenous in testis)); assay: co-IP

binding [1] | binding [2] | Binder
no binding | – | CDK4, yeast two-hybrid prey (enzyme, UniProt P30285 1-303) MAATRYEPVAEIGVGAYGTVYKARDPHSGHFVALKSVRVPNGGAAGGGLPVSTVREVALLRRLEAFEHPNVVRLMDVCATSRTDRDIKVTLVFEHIDQDLRTYLDKAPPPGLPVETIKDLMRQFLSGLDFLHANCIVHRDLKPENILVTSNGTVKLADFGLARIYSYQMALTPVVVTLWYRAPEVLLQSTYATPVDMWSVGCIFAEMFRRKPLFCGNSEADQLGKIFDLIGLPPEDDWPREVSLPRGAFAPRGPRPVQSVVPEMEESGAQLLLEMLTFNPHKRISAFRALQHSYLHKEESDAE
– | no binding | CDK4 (endogenous, mouse testis) (enzyme, UniProt P30285 1-303) MAATRYEPVAEIGVGAYGTVYKARDPHSGHFVALKSVRVPNGGAAGGGLPVSTVREVALLRRLEAFEHPNVVRLMDVCATSRTDRDIKVTLVFEHIDQDLRTYLDKAPPPGLPVETIKDLMRQFLSGLDFLHANCIVHRDLKPENILVTSNGTVKLADFGLARIYSYQMALTPVVVTLWYRAPEVLLQSTYATPVDMWSVGCIFAEMFRRKPLFCGNSEADQLGKIFDLIGLPPEDDWPREVSLPRGAFAPRGPRPVQSVVPEMEESGAQLLLEMLTFNPHKRISAFRALQHSYLHKEESDAE
– | binds | CDC34 (E2 conjugating enzyme) (enzyme, UniProt Q8CFI2 1-235) MARPLVPSSQKALLLELKGLQEEPVEGFRVTLVDEGDLYNWEVAIFGPPNTYYEGGYFKARLKFPIDYPYSPPAFRFLTKMWHPNIYETGDVCISILHPPVDDPQSGELPSERWNPTQNVRTILLSVISLLNEPNTFSPANVDASVMYRKWKESKGKDREYTDIIRKQVLGTKVDAERDGVKVPTTLAEYCVKTKAPAPDEGSDLFYDDYYEDGEVEEADSCFGDEEDDSGTEES

Results are given in words; binding and its absence hold for the method and conditions named. For part of these data: In cells and extracts the contact can be indirect. For part of these data: Binding calls can cover weak binding; strength is not graded here.
